The list shows a part of the results, in another mix than the full data.
Compound: COC(=O)C#Cc1ccccc1 [methyl 3-phenylpropiolate]
Assay: log2 ratio of iodoacetamide-alkyne labeling of the cysteine site, DMSO over compound (competition); higher = stronger covalent engagement of the cysteine by the compound, active = 1 or more
Settings: 500 µM; treatment time 1 h; system: HEK293T cell lysate
How it was run: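 HEK293T lysate at 2 mg/mL was treated with vehicle or electrophile (500 µM) for 1 h at ambient temperature, then labelled with iodoacetamide alkyne (1 h), clicked to sCIP-TMT reagents, pooled, digested with trypsin overnight at 37 °C, enriched on streptavidin and eluted with acid. Peptides were analysed by Orbitrap Eclipse LC-MS/MS with FAIMS and quantified in FragPipe, using duplicate channels and three replicates, with cysteines quantified in only one replicate excluded. The log2 competition ratio for each cysteine is the mean control-channel reporter intensity divided by the mean compound-channel reporter intensity.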

Sequences of proteins named here, by UniProt entry; tags and fusion partners are left off. A change or cut given only in a name is not applied to a line headed by its entry.
UniProt O14530: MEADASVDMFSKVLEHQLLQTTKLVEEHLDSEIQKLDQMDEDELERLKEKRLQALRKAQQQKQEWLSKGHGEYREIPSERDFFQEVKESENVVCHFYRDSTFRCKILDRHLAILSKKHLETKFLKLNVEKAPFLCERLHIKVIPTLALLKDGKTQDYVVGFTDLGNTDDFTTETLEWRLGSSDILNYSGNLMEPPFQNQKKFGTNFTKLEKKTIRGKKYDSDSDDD
UniProt O00541, whole entry, looked up: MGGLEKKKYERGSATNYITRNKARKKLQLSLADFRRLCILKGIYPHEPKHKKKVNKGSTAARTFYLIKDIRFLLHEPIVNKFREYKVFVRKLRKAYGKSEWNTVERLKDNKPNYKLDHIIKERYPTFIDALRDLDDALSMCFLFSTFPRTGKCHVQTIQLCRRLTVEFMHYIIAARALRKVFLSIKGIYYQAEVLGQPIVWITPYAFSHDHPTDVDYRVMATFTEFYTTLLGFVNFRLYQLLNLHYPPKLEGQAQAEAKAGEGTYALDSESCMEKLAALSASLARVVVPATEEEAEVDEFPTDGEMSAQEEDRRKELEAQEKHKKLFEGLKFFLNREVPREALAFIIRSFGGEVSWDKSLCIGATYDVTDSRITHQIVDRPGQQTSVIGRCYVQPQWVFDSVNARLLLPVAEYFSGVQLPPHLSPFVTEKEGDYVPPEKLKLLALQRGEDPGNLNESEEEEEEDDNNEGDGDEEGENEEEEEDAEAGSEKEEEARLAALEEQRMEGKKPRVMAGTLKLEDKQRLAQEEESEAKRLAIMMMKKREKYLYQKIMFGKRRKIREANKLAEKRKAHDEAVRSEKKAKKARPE
UniProt O14617: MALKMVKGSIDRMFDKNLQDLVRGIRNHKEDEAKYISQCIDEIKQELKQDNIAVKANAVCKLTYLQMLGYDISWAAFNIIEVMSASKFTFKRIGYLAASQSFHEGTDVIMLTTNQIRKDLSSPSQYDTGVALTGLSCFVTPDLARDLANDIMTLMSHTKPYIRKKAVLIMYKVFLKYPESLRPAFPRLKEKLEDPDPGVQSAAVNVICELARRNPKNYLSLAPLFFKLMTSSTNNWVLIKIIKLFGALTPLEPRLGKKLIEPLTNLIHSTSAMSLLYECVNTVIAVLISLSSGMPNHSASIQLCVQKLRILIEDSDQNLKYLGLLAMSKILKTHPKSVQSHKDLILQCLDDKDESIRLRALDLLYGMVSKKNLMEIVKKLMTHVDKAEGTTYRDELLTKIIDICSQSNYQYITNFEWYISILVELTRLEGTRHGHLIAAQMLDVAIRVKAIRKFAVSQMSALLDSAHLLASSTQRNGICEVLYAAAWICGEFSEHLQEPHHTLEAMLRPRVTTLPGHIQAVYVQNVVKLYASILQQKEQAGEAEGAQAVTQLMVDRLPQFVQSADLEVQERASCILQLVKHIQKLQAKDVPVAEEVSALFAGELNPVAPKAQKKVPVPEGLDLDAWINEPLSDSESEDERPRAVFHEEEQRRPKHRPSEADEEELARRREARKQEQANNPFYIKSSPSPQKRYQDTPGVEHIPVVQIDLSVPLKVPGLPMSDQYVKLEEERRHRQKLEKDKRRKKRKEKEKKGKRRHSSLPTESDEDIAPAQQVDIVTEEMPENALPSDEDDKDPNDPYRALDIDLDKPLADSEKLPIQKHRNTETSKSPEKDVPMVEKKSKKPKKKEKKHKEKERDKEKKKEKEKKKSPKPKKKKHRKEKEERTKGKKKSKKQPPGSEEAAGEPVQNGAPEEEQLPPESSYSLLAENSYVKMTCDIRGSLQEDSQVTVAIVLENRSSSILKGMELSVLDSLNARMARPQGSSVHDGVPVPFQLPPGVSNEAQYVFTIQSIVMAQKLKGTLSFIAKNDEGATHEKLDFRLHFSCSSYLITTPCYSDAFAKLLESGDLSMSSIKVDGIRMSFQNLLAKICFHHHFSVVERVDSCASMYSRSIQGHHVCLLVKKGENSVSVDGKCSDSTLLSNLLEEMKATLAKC
UniProt O43149: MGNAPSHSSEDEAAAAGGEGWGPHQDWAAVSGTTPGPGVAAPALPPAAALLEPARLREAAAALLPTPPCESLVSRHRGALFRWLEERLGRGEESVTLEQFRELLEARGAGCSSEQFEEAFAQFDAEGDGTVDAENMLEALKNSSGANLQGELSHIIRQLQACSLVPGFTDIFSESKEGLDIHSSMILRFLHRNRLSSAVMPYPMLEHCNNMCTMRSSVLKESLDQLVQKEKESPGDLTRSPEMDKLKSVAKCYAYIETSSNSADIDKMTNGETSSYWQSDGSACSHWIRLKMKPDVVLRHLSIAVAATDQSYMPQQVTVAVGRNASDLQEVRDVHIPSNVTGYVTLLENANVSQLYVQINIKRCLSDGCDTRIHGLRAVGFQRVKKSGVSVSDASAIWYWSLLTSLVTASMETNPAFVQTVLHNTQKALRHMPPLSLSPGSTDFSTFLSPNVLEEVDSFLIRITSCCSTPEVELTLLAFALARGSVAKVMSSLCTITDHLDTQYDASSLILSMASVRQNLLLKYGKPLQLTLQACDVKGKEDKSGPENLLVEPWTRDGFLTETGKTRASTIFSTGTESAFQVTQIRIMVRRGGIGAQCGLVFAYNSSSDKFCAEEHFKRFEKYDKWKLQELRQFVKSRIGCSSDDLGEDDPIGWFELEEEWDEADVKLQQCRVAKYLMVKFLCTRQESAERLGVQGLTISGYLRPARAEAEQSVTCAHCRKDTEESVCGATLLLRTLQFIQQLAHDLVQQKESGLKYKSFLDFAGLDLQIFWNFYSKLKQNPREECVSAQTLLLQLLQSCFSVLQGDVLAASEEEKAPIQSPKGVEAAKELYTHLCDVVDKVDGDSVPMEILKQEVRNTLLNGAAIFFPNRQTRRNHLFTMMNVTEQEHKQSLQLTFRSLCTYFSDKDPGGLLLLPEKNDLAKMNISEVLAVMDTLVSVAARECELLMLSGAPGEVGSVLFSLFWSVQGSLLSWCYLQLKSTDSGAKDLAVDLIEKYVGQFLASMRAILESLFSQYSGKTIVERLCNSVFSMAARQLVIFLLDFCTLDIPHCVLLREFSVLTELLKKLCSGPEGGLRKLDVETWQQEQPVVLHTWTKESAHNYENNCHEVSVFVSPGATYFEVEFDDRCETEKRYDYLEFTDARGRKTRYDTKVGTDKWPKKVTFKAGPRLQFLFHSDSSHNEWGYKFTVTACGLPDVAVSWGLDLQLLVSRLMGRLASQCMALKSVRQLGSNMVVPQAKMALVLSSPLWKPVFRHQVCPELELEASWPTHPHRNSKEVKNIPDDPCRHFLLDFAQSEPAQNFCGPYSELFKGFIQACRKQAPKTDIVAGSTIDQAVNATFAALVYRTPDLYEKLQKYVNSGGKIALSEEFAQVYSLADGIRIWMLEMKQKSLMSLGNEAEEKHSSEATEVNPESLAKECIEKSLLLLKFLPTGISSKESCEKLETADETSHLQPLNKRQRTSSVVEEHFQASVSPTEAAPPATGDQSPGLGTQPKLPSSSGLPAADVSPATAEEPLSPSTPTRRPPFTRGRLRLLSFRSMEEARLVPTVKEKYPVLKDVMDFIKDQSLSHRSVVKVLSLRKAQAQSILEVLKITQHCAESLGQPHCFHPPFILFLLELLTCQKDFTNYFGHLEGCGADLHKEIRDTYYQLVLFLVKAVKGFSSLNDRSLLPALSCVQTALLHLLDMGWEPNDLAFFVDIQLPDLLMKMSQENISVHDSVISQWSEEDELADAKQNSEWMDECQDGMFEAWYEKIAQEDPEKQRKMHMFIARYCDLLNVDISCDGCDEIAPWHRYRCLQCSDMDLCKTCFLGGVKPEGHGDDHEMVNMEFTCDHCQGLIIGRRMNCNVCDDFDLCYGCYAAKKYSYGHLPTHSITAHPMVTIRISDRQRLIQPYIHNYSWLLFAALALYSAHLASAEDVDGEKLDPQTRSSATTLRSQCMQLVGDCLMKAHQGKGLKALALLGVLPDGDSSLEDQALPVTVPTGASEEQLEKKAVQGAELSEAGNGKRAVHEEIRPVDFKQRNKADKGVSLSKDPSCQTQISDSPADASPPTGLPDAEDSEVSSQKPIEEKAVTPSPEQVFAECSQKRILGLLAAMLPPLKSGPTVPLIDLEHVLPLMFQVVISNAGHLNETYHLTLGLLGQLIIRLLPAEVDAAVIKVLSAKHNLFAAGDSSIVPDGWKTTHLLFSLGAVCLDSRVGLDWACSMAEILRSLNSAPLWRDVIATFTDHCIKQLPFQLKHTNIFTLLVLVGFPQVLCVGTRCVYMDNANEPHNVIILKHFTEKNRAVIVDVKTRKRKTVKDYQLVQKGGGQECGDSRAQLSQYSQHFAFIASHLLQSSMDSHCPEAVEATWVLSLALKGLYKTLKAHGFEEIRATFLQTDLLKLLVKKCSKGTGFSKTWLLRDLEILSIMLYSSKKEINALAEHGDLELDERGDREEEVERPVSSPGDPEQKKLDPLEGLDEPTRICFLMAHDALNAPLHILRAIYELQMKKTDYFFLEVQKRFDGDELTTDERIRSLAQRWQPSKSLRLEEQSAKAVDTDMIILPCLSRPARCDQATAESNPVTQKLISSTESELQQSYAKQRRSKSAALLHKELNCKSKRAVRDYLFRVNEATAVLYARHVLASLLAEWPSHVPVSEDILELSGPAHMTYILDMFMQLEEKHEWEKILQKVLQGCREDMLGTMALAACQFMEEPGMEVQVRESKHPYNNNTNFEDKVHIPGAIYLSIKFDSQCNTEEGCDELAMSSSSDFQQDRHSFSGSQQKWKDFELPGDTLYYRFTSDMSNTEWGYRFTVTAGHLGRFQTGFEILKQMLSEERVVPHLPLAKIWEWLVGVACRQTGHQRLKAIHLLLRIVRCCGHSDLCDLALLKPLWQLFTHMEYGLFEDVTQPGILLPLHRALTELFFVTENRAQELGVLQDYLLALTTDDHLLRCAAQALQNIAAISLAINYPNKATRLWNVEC
UniProt O14519: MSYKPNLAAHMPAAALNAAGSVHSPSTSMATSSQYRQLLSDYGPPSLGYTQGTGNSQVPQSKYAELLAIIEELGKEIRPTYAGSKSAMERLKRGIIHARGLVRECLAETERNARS
UniProt O00592: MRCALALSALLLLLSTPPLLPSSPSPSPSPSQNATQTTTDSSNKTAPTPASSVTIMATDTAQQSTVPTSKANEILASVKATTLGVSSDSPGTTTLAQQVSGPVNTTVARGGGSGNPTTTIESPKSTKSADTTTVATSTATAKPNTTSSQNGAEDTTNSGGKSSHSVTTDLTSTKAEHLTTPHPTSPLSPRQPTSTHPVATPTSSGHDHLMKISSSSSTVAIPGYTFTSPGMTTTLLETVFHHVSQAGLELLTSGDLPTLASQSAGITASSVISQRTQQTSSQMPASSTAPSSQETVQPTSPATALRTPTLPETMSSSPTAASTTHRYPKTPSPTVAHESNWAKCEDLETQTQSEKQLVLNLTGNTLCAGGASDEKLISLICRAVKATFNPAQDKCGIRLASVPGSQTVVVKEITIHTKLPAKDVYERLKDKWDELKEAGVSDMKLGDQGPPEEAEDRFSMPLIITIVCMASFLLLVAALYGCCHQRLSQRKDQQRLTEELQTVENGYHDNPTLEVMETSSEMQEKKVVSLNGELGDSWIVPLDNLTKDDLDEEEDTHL
UniProt O14734: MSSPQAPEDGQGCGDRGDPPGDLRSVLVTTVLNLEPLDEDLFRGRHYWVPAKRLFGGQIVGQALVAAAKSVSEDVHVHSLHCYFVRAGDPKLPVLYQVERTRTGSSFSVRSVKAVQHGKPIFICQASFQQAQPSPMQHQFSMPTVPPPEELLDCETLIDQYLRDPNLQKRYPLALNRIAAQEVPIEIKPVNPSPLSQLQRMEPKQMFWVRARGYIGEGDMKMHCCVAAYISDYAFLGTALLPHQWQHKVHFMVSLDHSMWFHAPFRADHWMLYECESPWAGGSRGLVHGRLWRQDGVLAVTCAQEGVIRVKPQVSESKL
UniProt O00178: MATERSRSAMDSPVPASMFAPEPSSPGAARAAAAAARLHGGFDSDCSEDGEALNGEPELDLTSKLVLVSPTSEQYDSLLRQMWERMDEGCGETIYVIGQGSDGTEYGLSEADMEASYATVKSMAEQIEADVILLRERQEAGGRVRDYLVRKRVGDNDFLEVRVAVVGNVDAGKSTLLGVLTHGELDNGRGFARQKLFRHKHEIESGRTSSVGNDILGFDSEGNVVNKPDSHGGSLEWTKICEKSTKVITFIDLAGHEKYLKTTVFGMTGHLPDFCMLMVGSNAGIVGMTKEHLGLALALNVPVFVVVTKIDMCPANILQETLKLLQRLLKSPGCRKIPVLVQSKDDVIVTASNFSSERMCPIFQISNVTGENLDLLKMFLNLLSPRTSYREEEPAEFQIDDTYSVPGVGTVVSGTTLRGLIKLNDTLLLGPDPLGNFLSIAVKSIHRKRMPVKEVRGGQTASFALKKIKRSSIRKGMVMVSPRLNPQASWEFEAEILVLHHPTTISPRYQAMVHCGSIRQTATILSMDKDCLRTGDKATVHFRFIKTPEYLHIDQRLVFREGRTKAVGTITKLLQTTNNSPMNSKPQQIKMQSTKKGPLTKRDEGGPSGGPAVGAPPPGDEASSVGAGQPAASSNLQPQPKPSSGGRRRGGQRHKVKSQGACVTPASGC

Row | Target | log2 ratio of iodoacetamide-alkyne labeling
1 | GNPAT C73 (UniProt O15228) | inactive: 0.613
2 | SUPT5H C740 (UniProt O00267) | inactive: 0.00252
3 | UniProt O00567_C112 | inactive: 0.726
4 | TRIM24 C81 (UniProt O15164) | inactive: 0.0661
5 | PDHX C307 (UniProt O00330) | inactive: 0.254
6 | IPO5 C915 (UniProt O00410) | inactive: -0.00533
7 | UniProt O14628_C178 | active: 1.09
8 | DNM1L C505 (UniProt O00429) | inactive: 0.219
9 | UniProt O00567_C384 | inactive: -0.084
10 | UniProt O00442_C28 | inactive: -0.174
11 | TXNDC9 C94 (UniProt O14530) | inactive: -0.0861
12 | ARVCF C770 (UniProt O00192) | inactive: 0.146
13 | DDX3X C468 (UniProt O00571) | inactive: 0.261
14 | PFAS C1338 (UniProt O15067) | inactive: 0.118
15 | UniProt O14965_C393 | inactive: 0.594
16 | PFAS C502 (UniProt O15067) | inactive: 0.181
17 | NDUFS8 C117 (UniProt O00217) | inactive: 0.0636
18 | PES1 C361 (UniProt O00541) | inactive: 0.221
19 | DYNC1LI2 C191 (UniProt O43237) | inactive: 0.441

Row | Target | log2 ratio of iodoacetamide-alkyne labeling
20 | CIT C402 (UniProt O14578) | inactive: 0.955
21 | UniProt O00442_C100 | inactive: 0.0905
22 | AP3D1 C137 (UniProt O14617) | inactive: 0.262
23 | NVL C687 (UniProt O15381) | inactive: 0.62
24 | UniProt O14618_C244 | inactive: -0.0274
25 | KMT2D C392 (UniProt O14686) | inactive: 0.382
26 | ZZEF1 C2037 (UniProt O43149) | inactive: 0.217
27 | CDK2AP1 C105 (UniProt O14519) | inactive: 0.0674
28 | ZZEF1 C162 (UniProt O43149) | inactive: 0.261
29 | DHX15 C174 (UniProt O43143) | inactive: 0.157
30 | PODXL C344 (UniProt O00592) | inactive: 0.214
31 | ACOT8 C13 (UniProt O14734) | inactive: 0.228
32 | UniProt O15042_C320 | inactive: 0.307
33 | AP3D1 C348 (UniProt O14617) | inactive: 0.171
34 | UBE2C C114 (UniProt O00762) | inactive: 0.321
35 | GTPBP1 C241 (UniProt O00178) | inactive: 0.237
36 | KDM6A C960 (UniProt O15550) | inactive: 0.0999
37 | PRPF4 C299 (UniProt O43172) | inactive: 0.28

Copied from the list:
ACOT8 C13 (UniProt O14734) | log2 ratio of iodoacetamide-alkyne labeling: inactive: 0.228
ZZEF1 C2037 (UniProt O43149) | log2 ratio of iodoacetamide-alkyne labeling: inactive: 0.217
